Laboratory results: US20110257139A1, “TREATMENT OF DIARRHOEA” (ROYAL COLLEGE OF SURGEONS IN IRELAND, priority 2008, published 2011)
At least one compound was matched to its structure with a doubt left.

What was measured:
[1] = system: T84 cells; assay: Cl^− secretory (Isc) responses of T84 cell monolayers in Ussing chambers; assay type: cell-based; details: DCA 50 μM, 24 hrs
Protocol: Measurements of chloride secretion: Cultured T84 epithelial cells were employed as a model of the colonic epithelium. T84 cells were grown as monolayers on filter supports. When grown in this way T84 cells retain many of the characteristics of native intestinal epithelium and are widely considered as being among the best reductionist models for analysing intestinal epithelial secretory responses. […] After this time they were washed of GW 4064, mounted in Ussing chambers, and voltage-clamped to zero potential difference. Under these conditions, transepithelial ion transport can be measured as changes in short-circuit current (Isc) and such changes in Isc across T84 cells have been established as being wholly due to Cl^− ion secretion. After mounting the cells in Ussing chambers we measured Cl^− secretory responses to both the calcium- and cAMP-dependent agonists, carbachol (100 μM) and forskolin (10 μM), respectively.

[2] = system: Na^+/K^+ ATPase; assay: Na^+/K^+-ATPase activity in permeabilized T84 monolayers (Ussing chambers); assay type: cell-based; details: DCA 50 μM, 24 hrs

Structure (SMILES): C[C@H](CCC(=O)O)[C@H]1CC[C@H]2[C@@H]3CC[C@@H]4C[C@H](O)CC[C@]4(C)[C@H]3C[C@H](O)[C@]12C [DCA, deoxycholic acid]
- CCh-induced Cl^− secretory responses [1]: inhibited
- Na^+/K^+ ATPase activity [2]: only GW 4064 inhibited
